Measurements reported in PubChem BioAssay AID1919008 (Molecular Pharmacology Branch, DTP, NCI, 2023).
Values joined by “and” are separate entries in the source; they are usually repeats but may differ in a detail not shown here. Equal values may be shown once. Further values from the same series stand in other lists.

Test system: DMS-114 complex spheroids with HUVEC/MSC, growth % test/control
Assay: Anticancer human tumor DMS-114 cell line growth inhibition [AhR];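 note: spheroids exposed to agents for 7 days before readout; 100% = DMSO vehicle control wells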
Settings: hits give low values; active = viability on the fitted dose curve at most 10% of control; inactive = the rest
Description: Multicellular complex tumor spheroid response to aryl hydrocarbon receptor antagonists in combination with a variety of drugs and investigational agents in selected tumor cell lines
The current study was undertaken to assess response to aryl hydrocarbon receptor antagonists in combination with standard-of-care drugs and investigational agents in solid tumor complex spheroid models. Complex spheroids include a stromal component modeled by human endothelial cells (HUVEC) and fibroblasts modeled by human mesenchymal stem cells (MSCs). The concentration ranges selected for each drug and investigational agent were based upon clinically achievable concentrations if the clinical Cmax of the agent was known.
Compounds. The drugs and investigational agents: BAY 2416964 (NSC825713), GNF351 (NSC835774), CH-223191 (NSC835775), CPI-455 (NSC825282), aza-TdCyd (NSC777586), decitabine (NSC127716), belinostat (NSC758774), entinostat (NSC756642), pevonedistat (NSC761192), tazemetostat (NSC777109), talazoparib (NSC765396), olaparib (NSC753686), selinexor (NSC780203), nedisertib (M3814, NSC802822), bortezomib (NSC756655), venetoclax (NSC766270), doxorubicin (NSC123127), elimusertib (BAY189344, NSC800525), ceralasertib (AZD6738, NSC777638), TAK-243 (NSC785004), alisertib (NSC759677), etoposide (NSC141540), topotecan (NSC609699), eribulin (NSC707389), gemcitabine (NSC613327), carboplatin (NSC241240), cisplatin (NSC119875), and SN-38 (NSC673596) were obtained from the National Cancer Institute (NCI) Developmental Therapeutics Program Chemical Repository (32). The FDA-approved anticancer drug set is available from the Developmental Therapeutics Program at https://dtp.cancer.gov/organization/dscb/obtaining/available plates.htm. […] The stock solutions were prepared in dimethyl sulfoxide (DMSO, Sigma-Aldrich, St. Louis, MO, cat. D2650), except for the platinum compounds which were prepared in saline (Quality Biological, Gaithersburg, MD, cat. 114-055-101), at 800-fold the tested concentration and stored at -70 degrees C prior to their use. All drugs and investigational agents were tested over a range starting from a high concentration at or near the clinical Cmax and decreasing in half-log increments. If the clinical Cmax for an agent had not been determined, the highest concentration tested was 10 microM (Table 1).
Cell Culture. All cells were maintained in an incubator at 37 degrees C and 5% CO2 with 95% humidity. The PDC lines were cultured according to standard operating procedures established by the NCI PDMR (https://pdmr.cancer.gov). Briefly, all PDCs were thawed and cultured in Matrigel-coated flasks prepared with a working solution of 1X Ham's F-12 nutrient mix, without supplementation (Invitrogen, Waltham, MA, cat. 11765054), 100 U/mL penicillin-streptomycin (Invitrogen, cat. 15140122), and 2.5% Matrigel (Corning Inc., Corning, NY, cat. 354248) for the first three passages. All PDCs were cultured in complete DMEM/F-12 media containing advanced DMEM/F-12 (Invitrogen, cat. 12634028), 4.9% defined fetal bovine serum, heat inactivated (HyClone Laboratories Inc., Logan, UT, cat. SH30070.03HI), 389 ng/mL hydrocortisone (Sigma-Aldrich, cat. H4001), 9.7 ng/mL human EGF recombinant protein (Invitrogen, cat. PHG0313), 23.4 microg/mL adenine (Sigma-Aldrich, cat. A2786), 97.3 U/mL penicillin-streptomycin (Invitrogen, cat. 15140122), 1.9 mM L-glutamine (Invitrogen, cat. 25030081), and 9.7 microM Y-27632 dihydrochloride (Tocris Bioscience, Bristol, United Kingdom, cat. 1254). The PDCs were cultured in complete DMEM/F12 media without 10 microM Y-27632 dihydrochloride for at least two passages prior to the screen. The established cell lines NCI-H1341 and […] were cultured in DMEM/F-12, HEPES (Invitrogen, cat. 11330032), 5% defined fetal bovine serum (HyClone Laboratories Inc., cat. SH30070.03), ITS premix universal culture supplement [insulin (5 microg/mL), transferrin (5 microg/mL), and selenious acid (5 ng/mL)] […]

Measured: viability, T/C

Cc1ccccc1N=Nc1ccc(NC(=O)c2ccnn2C)c(C)c1
inactive: compound 0.1 µM 99.3% and 91% | compound 0.316 µM 103% and 98.7% and 93.9% | compound 1 µM 95% [middle of 5 runs] | compound 3.16 µM 97.4% [middle of 4 runs] | compound 10 µM 93.8% [middle of 4 runs]

CC(CO)NC(=O)c1cc(-c2ccc(Cl)cc2)nn(-c2cnn(C)c2)c1=O (centres undefined)
inactive: compound 0.1 µM 96.1% and 93.6% and 92% | compound 0.316 µM 97% [middle of 4 runs] | compound 1 µM 88.3% and 92.9% and 106% | compound 10 µM 95% [middle of 6 runs]

Cc1cncc(-c2nc(NCCc3c[nH]c4ccccc34)c3ncn(C(C)C)c3n2)c1
inactive: compound 0.1 µM 93.8% [middle of 5 runs] | compound 0.316 µM 96.2% [middle of 4 runs] | compound 1 µM 92.4% and 103% and 95.2% | compound 3.16 µM 90.5% [middle of 5 runs] | compound 10 µM 38.5% [middle of 5 runs]
